# Values from PubChem BioAssay AID1259254 (NCATS, 2017)
# Purpose: 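Gene knock-downs that lead to re-replication, shown by excess G2 DNA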 (primary screen)
# System: human HCT116 colorectal cancer cells
# Reagent: single siRNA against human genes
# Duration: 3 days
# Measurement: 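Imaged Hoechst DNA stain sorts each cell into a cycle phase by DNA amount; per plate, G2 fraction set to 0% for non-targeting and 100% for GMNN siRNA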
# Direction: G2 robust z-score and G2 cells, % of GMNN control: higher = more G2 cells, more excess DNA replication
# Call rule: 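Active siRNAs have a G2 robust z of 5 or more median absolute deviations over the median, which in these data means about 38% or higher of GMNN control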
# Shown is an unselected part of about 59,000 reagents tested. About 1,550 of them (2.6%) count as active. 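G2 share is only a proxy for re-replication; each gene was hit by three separate siRNAs, and active genes were retested.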 Entries without a mark were called inactive. The numbers tell different reagents against one gene apart. Further read-outs or replicates are left out here. Not given: the amount of reagent.
G2 robust z-score,"G2 cells, % of GMNN control",target,reagent
-0.493,-0.498,STK3 (serine/threonine kinase 3),1
0.0362,3.22,STK3 (serine/threonine kinase 3),2
0.208,4.43,STK3 (serine/threonine kinase 3),3
-1.25,-5.79,BCAT1 (branched chain amino acid transaminase 1),1
-0.463,-0.287,BCAT1 (branched chain amino acid transaminase 1),2
-0.816,-2.77,BCAT1 (branched chain amino acid transaminase 1),3
0.724,8.06,SLC39A12,1
1.53,13.7,SLC39A12,2
-0.55,-0.901,SLC39A12,3
4.14,32.1,TMEM31 (transmembrane protein 31),1
2.7,21.9,TMEM31 (transmembrane protein 31),2
0.21,4.44,TMEM31 (transmembrane protein 31),3
1.88,16.2,PRRC2A (proline rich coiled-coil 2A),1
0.694,7.85,PRRC2A (proline rich coiled-coil 2A),2
4.43,34.1,PRRC2A (proline rich coiled-coil 2A),3
-1.18,-5.3,REG1A (regenerating family member 1 alpha),1
-0.727,-2.15,REG1A (regenerating family member 1 alpha),2
-0.691,-1.9,REG1A (regenerating family member 1 alpha),3
0.958,9.71,POU3F1 (POU class 3 homeobox 1),1
-0.208,1.5,POU3F1 (POU class 3 homeobox 1),2
0.669,7.67,POU3F1 (POU class 3 homeobox 1),3
-0.323,0.694,ZIC1 (Zic family zinc finger 1),1
-0.424,-0.0165,ZIC1 (Zic family zinc finger 1),2
1.08,10.6,ZIC1 (Zic family zinc finger 1),3
1.06,10.4,GFM2 (GTP dependent ribosome recycling factor mitochondrial GFM2),1
-0.662,-1.69,GFM2 (GTP dependent ribosome recycling factor mitochondrial GFM2),2
-0.333,0.624,GFM2 (GTP dependent ribosome recycling factor mitochondrial GFM2),3
0.148,4.01,H2BC18 (H2B clustered histone 18),1
0.844,8.9,H2BC18 (H2B clustered histone 18),2
1.48,13.4,H2BC18 (H2B clustered histone 18),3
-0.136,2.01,IFI44L (interferon induced protein 44 like),1
2.4,19.8,IFI44L (interferon induced protein 44 like),2
0.633,7.42,IFI44L (interferon induced protein 44 like),3
3.06,24.5,SASS6 (SAS-6 centriolar assembly protein),1
1.33,12.4,SASS6 (SAS-6 centriolar assembly protein),2
2.12,17.9,SASS6 (SAS-6 centriolar assembly protein),3
-0.365,0.398,SLIT2 (slit guidance ligand 2),1
-0.382,0.282,SLIT2 (slit guidance ligand 2),2
-1.17,-5.25,SLIT2 (slit guidance ligand 2),3
-0.458,-0.258,GPR75 (G protein-coupled receptor 75),1
1.78,15.5,GPR75 (G protein-coupled receptor 75),2
-0.33,0.647,GPR75 (G protein-coupled receptor 75),3

4 consecutive entries from above, for reference:
G2 robust z-score,"G2 cells, % of GMNN control",target,reagent
-0.493,-0.498,STK3 (serine/threonine kinase 3),1
0.0362,3.22,STK3 (serine/threonine kinase 3),2
0.208,4.43,STK3 (serine/threonine kinase 3),3
-1.25,-5.79,BCAT1 (branched chain amino acid transaminase 1),1

Further records:
G2 robust z-score,"G2 cells, % of GMNN control",target,reagent
4.97,37.9,CFAP300 (cilia and flagella associated protein 300),1
-0.809,-2.72,CFAP300 (cilia and flagella associated protein 300),2
1.16,11.1,CFAP300 (cilia and flagella associated protein 300),3
1.18,11.2,PPFIBP1 (PPFIB scaffold protein 1),1
-0.399,0.158,PPFIBP1 (PPFIB scaffold protein 1),2
1.11,10.7,PPFIBP1 (PPFIB scaffold protein 1),3
0.472,6.29,RTL10 (retrotransposon Gag like 10),1
0.13,3.88,RTL10 (retrotransposon Gag like 10),2
1.49,13.4,RTL10 (retrotransposon Gag like 10),3
-0.112,2.18,SAFB (scaffold attachment factor B),1
-0.869,-3.15,SAFB (scaffold attachment factor B),2
-0.995,-4.04,SAFB (scaffold attachment factor B),3
-1.42,-7,ECPAS (Ecm29 proteasome adaptor and scaffold),1
0.0701,3.46,ECPAS (Ecm29 proteasome adaptor and scaffold),2
0.125,3.85,ECPAS (Ecm29 proteasome adaptor and scaffold),3
0.0429,3.27,PLLP (plasmolipin),1
0.633,7.42,PLLP (plasmolipin),2
-0.203,1.54,PLLP (plasmolipin),3
-0.402,0.137,"TECRL (trans-2,3-enoyl-CoA reductase like)",1
0.895,9.26,"TECRL (trans-2,3-enoyl-CoA reductase like)",2
0.515,6.59,"TECRL (trans-2,3-enoyl-CoA reductase like)",3
-0.0128,2.88,GAREM2 (GRB2 associated regulator of MAPK1 subtype 2),1
-0.308,0.797,GAREM2 (GRB2 associated regulator of MAPK1 subtype 2),2
0.802,8.61,GAREM2 (GRB2 associated regulator of MAPK1 subtype 2),3
0.367,5.55,LINC01548 (long independently transcribed non-coding RNA 1548),1
-0.288,0.941,LINC01548 (long independently transcribed non-coding RNA 1548),2
-0.166,1.8,LINC01548 (long independently transcribed non-coding RNA 1548),3
